## Library screen at single concentrations

Chains of the proteins cited; added tags and fusions are not shown.
UniProt P9WPC5, whole entry: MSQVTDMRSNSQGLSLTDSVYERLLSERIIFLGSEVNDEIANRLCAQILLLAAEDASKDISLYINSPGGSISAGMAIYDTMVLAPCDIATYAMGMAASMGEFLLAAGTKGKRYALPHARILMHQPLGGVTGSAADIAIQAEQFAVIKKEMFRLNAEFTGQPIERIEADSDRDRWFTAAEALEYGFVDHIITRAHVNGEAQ
UniProt P9WPC3, whole entry partner: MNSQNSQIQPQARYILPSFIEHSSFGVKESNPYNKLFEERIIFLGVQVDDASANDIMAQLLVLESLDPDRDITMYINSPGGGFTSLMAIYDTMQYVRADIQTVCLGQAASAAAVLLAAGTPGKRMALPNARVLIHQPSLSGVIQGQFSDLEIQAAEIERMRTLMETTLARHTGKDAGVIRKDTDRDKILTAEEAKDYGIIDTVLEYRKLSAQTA

Source: ChEMBL document CHEMBL3988442, “University of Dundee, Small-Polar-MMV Screening Library” (2021).

Results are given as percent effect.
The record does not define 0% and 100%; most values in the screen are far below 50% and negative numbers occur (in some assays of this library far below -100).
This is an unselected part of the compounds tested.

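ClpP1P2, Mycobacterium tuberculosis (UniProt P9WPC5 and UniProt P9WPC3). Protease assay of ClpP1P2, read by the AMC dye that it sets free. Concentration: 50 µM. Direction is inferred from only a few compounds that gave an IC50; most scored high, so higher reads as stronger inhibition. Most other retested compounds had strongly negative values. About 69,000 compounds were tested under these conditions; 0.015% (about 10) showed 50% or more at least once.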

| Compound | effect |
|---|---|
| `O=C(Nc1nc2c(s1)CCC2)NC1CCCC1` | -5.465% |
| `NC(=O)C(CNC(=O)Cc1ccc(F)cc1)Cc1ccc(F)cc1` (stereo not shown) | -5.069% |
| `Cc1c(Br)cccc1NC(=O)N(C)CCO` | -10.89% |
| `CNC(=O)CN1CCCC12CCN(C(=O)c1cccc(F)c1)CC2` | -2.785% |
| `CS(=O)(=O)N1C[C@@H]2CC[C@H](C1)N(Cc1ccc3nsnc3c1)C2` | -16.91% |
| `CCS(=O)(=O)N1CCC[C@]2(C(=O)N(C)C)CN(c3ccccn3)C[C@@H]2C1` | 1.214% |
| `CC(C)c1ncc(Cl)c(C(=O)N2CCCN3CCCC3C2)n1` (stereo not shown) | -9.863% |
| `Cc1ccc(NC2CCN(C(=O)c3cscn3)CC2)nn1` | -8.551% |
| `CCc1ncc2c(n1)CN(Cc1nc(-c3ccoc3)no1)CC2` | -49.62% |
| `C1CCC(CNC2CCSCC2)(N2CCOCC2)CC1` | -25.59% |
| `Cc1ccc(CC(=O)NC2CCN(c3cccc(Cl)c3)C2)cn1` (stereo not shown) | -6.852% |
| `O=C(NCCN1CCCCCC1)c1n[nH]c(=O)c2ccccc12` | -32.54% |
| `COCC(=O)Nc1ccc(-c2noc([C@@H]3CCCN3CC(C)C)n2)cn1` | -1.696% |
| `Cc1ncsc1-c1nnc(C2CCN(Cc3ccccc3Cl)CC2)o1` | 9.624% |
| `CC(C)NC(=O)[C@H]1C[C@@H]2CN(C(=O)NC(C)C)C[C@H]1O2` | 6.598% |
| `CNc1ccnc(N2C[C@@H]3CC[C@H](C2)N(CCOC)C3=O)n1` | 3.303% |
| `O=c1c(NCCc2ccc(O)cc2)c(NCc2ccncc2)c1=O` | -16.16% |
| `CN(C)C(=O)NC1COC2(CCN(Cc3nccn3C)CC2)C1` (stereo not shown) | -20.52% |
| `COCCN(C)c1cnn(C)c(=O)c1Br` | 15.43% |
| `CCc1nc(C2CCCN2C(=O)c2cc3c(s2)CCC3)no1` (stereo not shown) | -8.185% |
| `Cc1noc(C)c1CN1C[C@@H]2COC[C@]2(COc2ccc(C#N)cn2)C1` | -9.535% |
| `O=c1ccc(-c2cccs2)nn1CN1CCN(c2ccccn2)CC1` | -17.96% |
| `CC1CN(C)CCN1C(=O)c1cccn1Cc1cccnc1` (stereo not shown) | 9.818% |
| `Cn1cc(CN2CCc3c(c(COCC#N)nn3C)C2)cn1` | -2.263% |
| `COCc1noc(-c2ccc(N3CCCCC3COC)nc2)n1` (stereo not shown) | -3.825% |
| `Cc1cc(C)n(CC2CCCCN2CC(=O)Nc2c(C)n[nH]c2C)n1` (stereo not shown) | -9.017% |
| `Cc1c(NC(C)C(C)C)cccc1C(=O)NCc1ccnn1C` (stereo not shown) | -3.195% |
| `Cc1ccc(NC2CCN(C(=O)c3cccc4cccnc34)CC2)nn1` | -18.6% |
| `c1cc(N2CCSCC2)ccc1CNc1cncc2nnnn12` | 12.8% |
| `O=C1CC2(CCN(CC3CCOC3)CC2)CN1Cc1cc(F)cc(F)c1` (stereo not shown) | -6.071% |
| `CCOCCC(=O)N1CCCN(Cc2csc(CC)n2)CC1` | -3.847% |
| `Cc1nc(C)n(CC2CCCN2CCOc2ccc(F)cc2)n1` (stereo not shown) | -27.26% |
| `CCOCCNC(=O)c1ccn(S(=O)(=O)c2ccc(C)cc2)c1` | -2.027% |
| `Cn1cnc2c1C(C(=O)N1CCCC1)N(CC1CC1)CC2` (stereo not shown) | -5.804% |
| `CC(=O)NC1CCCN(C(=O)NCc2ccc(-c3ccn[nH]3)cc2)C1` (stereo not shown) | 7.158% |
| `CC(C)c1nnsc1CNC(=O)C1CCCN(C(=O)N(C)C)C1` (stereo not shown) | -14.29% |
| `CC(=O)N1CCOC(c2nc(N(C)C)ncc2-c2cccc(F)c2)C1` (stereo not shown) | 12.46% |
| `CC(C)Oc1ncccc1CNC(=O)NC(C)c1cccs1` (stereo not shown) | 3.991% |
| `CNS(=O)(=O)CCCN1CCN(C(C)c2cccnc2)CC1` (stereo not shown) | 3.344% |
| `c1cc(CNCC2Cn3nncc3CO2)co1` (stereo not shown) | -5.788% |
| `COc1c(C2CCCN2Cc2nc(C3CC3)no2)c(C)nn1C` (stereo not shown) | 5.639% |
| `CC(C)c1nnc2n1CCN(C(=O)c1ccc3c(c1)NC(=O)CO3)C2` | 3.445% |
| `Cc1noc(C2CCN(C(=O)CCc3nccs3)CC2)n1` | 36.71% |
| `CCN(Cc1noc(CC(C)C)n1)C[C@]1(O)CCCN2CCCC[C@@H]21` | -14.59% |
| `CCC(C)N(Cc1ccncc1)Cc1ccccc1Cn1cccn1` (stereo not shown) | -8.485% |
| `Cc1nn(CC(=O)O)c(C)c1NS(=O)(=O)c1cccc2ccccc12` | 4.902% |
| `CN(C)CC1CSCCCN1C(=O)Nc1ccc(C(C)(C)C)cc1` (stereo not shown) | -5.596% |
| `COc1ccc(CN(C)[C@@H]2COC[C@H]2c2ccc(F)cc2)cc1` | -8.729% |
| `OC(CN1CC(n2cccn2)C1)c1ccc2c(c1)OCCO2` (stereo not shown) | 11.15% |
| `Cc1nc(CCNC(=O)c2cc(C(C)C)nn2C)sc1C` | 10.28% |
| `Cc1nc2[nH]cnc(NCCN3CCCC3)c-2n1` | -7.496% |
| `CCn1cc(C(=O)N2C[C@H]3C[C@H](Oc4ccccc4)C[C@H]3C2)cn1` | 18.11% |
| `CCCn1cc(S(=O)(=O)N(C)Cc2nonc2C)c(C)n1` | -2.449% |
| `CCCS(=O)(=O)c1ccc(N2CCC(Cc3ccccc3)CC2)nn1` | 2.998% |
| `Cn1cc(CN2CC[C@H]3C[C@@H](c4nc(C5CC5)cs4)O[C@@H]3C2)cn1` | 5.22% |
| `CC(=O)N1CCN(Cc2ccc(F)cc2)CC2(CC(=O)N(C)C2)C1` (stereo not shown) | 22.4% |
| `O=C(Cc1ccc(F)cc1)N1CCn2c(Cn3cncn3)cnc2C1` | 15.12% |
| `Cc1noc(C)c1CN1CCOCC12CCN(c1nccs1)CC2` | 0.3809% |
| `O=C(CNC(=O)c1cnccn1)Nc1ncc[nH]1` | -2.137% |
| `O=C(NCC1CCCO1)c1cc(-c2cccnc2)c2cnccc2n1` (stereo not shown) | -12.85% |
| `CCN(CC)Cc1cc(=O)n2c(n1)CN(C(=O)c1ccnnc1)CCC2` | -3.765% |
| `N#Cc1cccc(N2CC3(CCN(C(=O)c4ccnnc4)C3)CC2=O)c1` (stereo not shown) | 10.99% |
| `Cc1ccc(C(=O)N(C)Cc2cc(Br)cs2)cn1` | 5.98% |
| `CCN(Cc1ccoc1)C(=O)NC1CCN(CC2CC2)C1` (stereo not shown) | 3.306% |
| `CN(Cc1ccco1)C1CCC12CCN(C(=O)N1CCCC1)CC2` (stereo not shown) | -17.66% |
| `CCCc1nc(CN(CC)C(=O)c2ccc3ncsc3c2)no1` | -0.1028% |
| `O=C(N1CCCO1)[C@@]12CCO[C@@H]1CCN(Cc1cccs1)C2` | -11.34% |
| `Cc1ccc(C(=O)NS(=O)(=O)c2cc(Br)ccc2C)c(=O)[nH]1` | -12.3% |
| `Cc1cccc(N(CC(=O)N2CCCCC2)Cc2ccno2)c1` | -0.1699% |

5 of the entries, repeated:

- C1CCC(CNC2CCSCC2)(N2CCOCC2)CC1 : -25.59%
- Cn1cc(CN2CC[C@H]3C[C@@H](c4nc(C5CC5)cs4)O[C@@H]3C2)cn1 : 5.22%
- Cc1nc(CCNC(=O)c2cc(C(C)C)nn2C)sc1C : 10.28%
- O=C(CNC(=O)c1cnccn1)Nc1ncc[nH]1 : -2.137%
- CCN(Cc1noc(CC(C)C)n1)C[C@]1(O)CCCN2CCCC[C@@H]21 : -14.59%